Assay [1] deals with SFB-tagged IP6K1 (human) (UniProt Q92551). Kind of assay: affinity purification with mass spectrometry.
The target is the same in assay [2]. Kind of assay: affinity purification with mass spectrometry. The source holds these as a separate data set.

Sequences of proteins named here, by UniProt entry; tags and fusion partners are left off.
UniProt Q92551: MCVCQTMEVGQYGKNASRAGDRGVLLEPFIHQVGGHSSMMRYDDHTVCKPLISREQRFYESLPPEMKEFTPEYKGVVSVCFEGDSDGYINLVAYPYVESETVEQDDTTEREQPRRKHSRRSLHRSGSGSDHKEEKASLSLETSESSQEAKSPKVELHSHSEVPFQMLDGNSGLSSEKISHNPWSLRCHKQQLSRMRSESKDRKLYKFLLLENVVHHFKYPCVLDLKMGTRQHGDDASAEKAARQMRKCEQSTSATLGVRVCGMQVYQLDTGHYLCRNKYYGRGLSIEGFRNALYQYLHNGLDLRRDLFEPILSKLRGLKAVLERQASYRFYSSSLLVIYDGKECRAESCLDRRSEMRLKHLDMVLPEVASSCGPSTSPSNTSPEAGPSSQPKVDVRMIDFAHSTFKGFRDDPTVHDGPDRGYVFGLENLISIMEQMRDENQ
UniProt Q04637: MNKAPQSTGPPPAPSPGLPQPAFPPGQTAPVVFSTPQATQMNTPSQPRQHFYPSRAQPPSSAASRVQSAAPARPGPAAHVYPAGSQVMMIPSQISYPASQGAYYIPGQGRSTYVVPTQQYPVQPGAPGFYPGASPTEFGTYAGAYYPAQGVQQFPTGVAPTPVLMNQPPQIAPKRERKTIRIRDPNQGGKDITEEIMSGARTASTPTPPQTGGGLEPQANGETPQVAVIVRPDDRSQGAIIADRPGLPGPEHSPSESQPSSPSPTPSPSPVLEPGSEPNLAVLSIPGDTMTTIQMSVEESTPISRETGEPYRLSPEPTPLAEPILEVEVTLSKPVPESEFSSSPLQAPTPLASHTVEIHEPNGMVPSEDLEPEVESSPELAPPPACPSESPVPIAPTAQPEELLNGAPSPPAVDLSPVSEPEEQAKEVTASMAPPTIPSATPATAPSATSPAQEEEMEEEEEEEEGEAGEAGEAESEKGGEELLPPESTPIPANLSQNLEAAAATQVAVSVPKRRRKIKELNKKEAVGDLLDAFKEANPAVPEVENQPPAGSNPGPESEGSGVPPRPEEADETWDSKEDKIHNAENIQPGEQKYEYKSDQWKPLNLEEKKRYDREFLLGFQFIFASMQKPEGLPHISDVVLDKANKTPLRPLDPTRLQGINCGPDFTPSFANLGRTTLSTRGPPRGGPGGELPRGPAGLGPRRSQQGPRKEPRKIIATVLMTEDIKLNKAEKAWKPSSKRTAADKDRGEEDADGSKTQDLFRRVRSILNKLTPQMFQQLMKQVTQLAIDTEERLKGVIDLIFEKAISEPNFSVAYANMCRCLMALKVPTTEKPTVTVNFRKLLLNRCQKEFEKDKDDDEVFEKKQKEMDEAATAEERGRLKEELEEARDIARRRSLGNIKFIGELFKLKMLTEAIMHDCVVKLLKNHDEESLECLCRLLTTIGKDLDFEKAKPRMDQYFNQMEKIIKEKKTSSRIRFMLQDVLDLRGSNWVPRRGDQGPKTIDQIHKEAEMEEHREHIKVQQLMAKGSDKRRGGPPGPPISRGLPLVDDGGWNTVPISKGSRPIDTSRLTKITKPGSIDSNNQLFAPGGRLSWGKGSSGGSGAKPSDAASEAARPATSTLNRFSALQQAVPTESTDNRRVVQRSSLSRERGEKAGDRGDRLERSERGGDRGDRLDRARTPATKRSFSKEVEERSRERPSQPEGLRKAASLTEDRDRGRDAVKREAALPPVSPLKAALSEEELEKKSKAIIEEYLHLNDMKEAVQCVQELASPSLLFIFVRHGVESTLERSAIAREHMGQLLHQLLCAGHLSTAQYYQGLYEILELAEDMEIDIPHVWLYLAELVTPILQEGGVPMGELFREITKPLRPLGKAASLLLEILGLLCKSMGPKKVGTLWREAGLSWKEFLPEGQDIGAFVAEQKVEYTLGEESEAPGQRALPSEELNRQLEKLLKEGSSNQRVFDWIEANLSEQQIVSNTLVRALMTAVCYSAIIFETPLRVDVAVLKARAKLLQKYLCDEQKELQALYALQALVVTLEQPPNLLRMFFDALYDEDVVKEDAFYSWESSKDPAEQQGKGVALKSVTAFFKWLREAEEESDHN
UniProt Q14978: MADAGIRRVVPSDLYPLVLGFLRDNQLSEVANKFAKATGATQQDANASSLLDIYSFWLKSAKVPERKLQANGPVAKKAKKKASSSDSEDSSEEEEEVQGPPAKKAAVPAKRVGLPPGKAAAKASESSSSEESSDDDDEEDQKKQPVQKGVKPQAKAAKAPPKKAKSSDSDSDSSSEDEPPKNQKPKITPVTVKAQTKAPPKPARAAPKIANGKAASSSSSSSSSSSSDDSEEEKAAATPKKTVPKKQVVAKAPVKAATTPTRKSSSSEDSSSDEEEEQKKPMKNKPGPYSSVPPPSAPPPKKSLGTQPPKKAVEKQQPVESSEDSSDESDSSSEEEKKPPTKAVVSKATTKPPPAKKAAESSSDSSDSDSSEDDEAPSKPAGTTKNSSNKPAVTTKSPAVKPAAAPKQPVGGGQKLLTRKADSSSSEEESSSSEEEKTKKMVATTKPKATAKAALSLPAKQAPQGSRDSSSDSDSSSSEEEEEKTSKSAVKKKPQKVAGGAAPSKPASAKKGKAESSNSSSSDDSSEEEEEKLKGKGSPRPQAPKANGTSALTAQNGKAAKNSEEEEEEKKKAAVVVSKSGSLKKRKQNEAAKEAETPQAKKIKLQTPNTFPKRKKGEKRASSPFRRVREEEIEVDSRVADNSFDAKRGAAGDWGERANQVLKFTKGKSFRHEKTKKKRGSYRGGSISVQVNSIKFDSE

Read-outs that look alike come from different tables or passages of the source. No constants are given. Whether binding was seen depends on the method and setting. Binding seen in cells or lysates may run through a third protein. Here binding means that the protein was enriched with, or labelled near, the bait; the list need not be complete.

With “endogenous CK2 catalytic α’ subunit (CSK22) (from UniProt P19784 1-350) (enzyme)”, in the assay with SFB-tagged IP6K1 (human) [1], the binding entry is given as “binds”.

Consider “endogenous EIF4G1 (from UniProt Q04637 1-1599)”, for which the binding entry with SFB-tagged IP6K1 (human) [1] is on record as “binds”.

Take “endogenous NOLC1 (from UniProt Q14978 1-699)”: the binding result in the assay with SFB-tagged IP6K1 (human) [1] is on record as “binds”.

B1: endogenous AP3B1 (protein, UniProt O00203 1-1094)
chain: MSSNSFPYNEQSGGGEATELGQEATSTISPSGAFGLFSSDLKKNEDLKQMLESNKDSAKLDAMKRIVGMIAKGKNASELFPAVVKNVASKNIEIKKLVYVYLVRYAEEQQDLALLSISTFQRALKDPNQLIRASALRVLSSIRVPIIVPIMMLAIKEASADLSPYVRKNAAHAIQKLYSLDPEQKEMLIEVIEKLLKDKSTLVAGSVVMAFEEVCPDRIDLIHKNYRKLCNLLVDVEEWGQVVIIHMLTRYARTQFVSPWKEGDELEDNGKNFYESDDDQKEKTDKKKKPYTMDPDHRLLIRNTKPLLQSRNAAVVMAVAQLYWHISPKSEAGIISKSLVRLLRSNREVQYIVLQNIATMSIQRKGMFEPYLKSFYVRSTDPTMIKTLKLEILTNLANEANISTLLREFQTYVKSQDKQFAAATIQTIGRCATNILEVTDTCLNGLVCLLSNRDEIVVAESVVVIKKLLQMQPAQHGEIIKHMAKLLDSITVPVARASILWLIGENCERVPKIAPDVLRKMAKSFTSEDDLVKLQILNLGAKLYLTNSKQTKLLTQYILNLGKYDQNYDIRDRTRFIRQLIVPNVKSGALSKYAKKIFLAQKPAPLLESPFKDRDHFQLGTLSHTLNIKATGYLELSNWPEVAPDPSVRNVEVIELAKEWTPAGKAKQENSAKKFYSESEEEEDSSDSSSDSESESGSESGEQGESGEEGDSNEDSSEDSSSEQDSESGRESGLENKRTAKRNSKAKGKSDSEDGEKENEKSKTSDSSNDESSSIEDSSSDSESESEPESESESRRVTKEKEKKTKQDRTPLTKDVSLLDLDDFNPVSTPVALPTPALSPSLMADLEGLHLSTSSSVISVSTPAFVPTKTHVLLHRMSGKGLAAHYFFPRQPCIFGDKMVSIQITLNNTTDRKIENIHIGEKKLPIGMKMHVFNPIDSLEPEGSITVSMGIDFCDSTQTASFQLCTKDDCFNVNIQPPVGELLLPVAMSEKDFKKEQGVLTGMNETSAVIIAAPQNFTPSVIFQKVVNVANVGAVPSGQDNIHRFAAKTVHSGSLMLVTVELKEGSTAQLIINTEKTVIGSVLLRELKPVLSQG
In the case of B1, the binding entry with SFB-tagged IP6K1 (human) [2] was “binds”.

B2: endogenous TCOF (protein, UniProt Q13428 1-1488)
chain: MAEARKRRELLPLIYHHLLRAGYVRAAREVKEQSGQKCFLAQPVTLLDIYTHWQQTSELGRKRKAEEDAALQAKKTRVSDPISTSESSEEEEEAEAETAKATPRLASTNSSVLGADLPSSMKEKAKAETEKAGKTGNSMPHPATGKTVANLLSGKSPRKSAEPSANTTLVSETEEEGSVPAFGAAAKPGMVSAGQADSSSEDTSSSSDETDVEGKPSVKPAQVKASSVSTKESPARKAAPAPGKVGDVTPQVKGGALPPAKRAKKPEEESESSEEGSESEEEAPAGTRSQVKASEKILQVRAASAPAKGTPGKGATPAPPGKAGAVASQTKAGKPEEDSESSSEESSDSEEETPAAKALLQAKASGKTSQVGAASAPAKESPRKGAAPAPPGKTGPAVAKAQAGKREEDSQSSSEESDSEEEAPAQAKPSGKAPQVRAASAPAKESPRKGAAPAPPRKTGPAAAQVQVGKQEEDSRSSSEESDSDREALAAMNAAQVKPLGKSPQVKPASTMGMGPLGKGAGPVPPGKVGPATPSAQVGKWEEDSESSSEESSDSSDGEVPTAVAPAQEKSLGNILQAKPTSSPAKGPPQKAGPVAVQVKAEKPMDNSESSEESSDSADSEEAPAAMTAAQAKPALKIPQTKACPKKTNTTASAKVAPVRVGTQAPRKAGTATSPAGSSPAVAGGTQRPAEDSSSSEESDSEEEKTGLAVTVGQAKSVGKGLQVKAASVPVKGSLGQGTAPVLPGKTGPTVTQVKAEKQEDSESSEEESDSEEAAASPAQVKTSVKKTQAKANPAAARAPSAKGTISAPGKVVTAAAQAKQRSPSKVKPPVRNPQNSTVLARGPASVPSVGKAVATAAQAQTGPEEDSGSSEEESDSEEEAETLAQVKPSGKTHQIRAALAPAKESPRKGAAPTPPGKTGPSAAQAGKQDDSGSSSEESDSDGEAPAAVTSAQVIKPPLIFVDPNRSPAGPAATPAQAQAASTPRKARASESTARSSSSESEDEDVIPATQCLTPGIRTNVVTMPTAHPRIAPKASMAGASSSKESSRISDGKKQEGPATQVSKKNPASLPLTQAALKVLAQKASEAQPPVARTQPSSGVDSAVGTLPATSPQSTSVQAKGTNKLRKPKLPEVQQATKAPESSDDSEDSSDSSSGSEEDGEGPQGAKSAHTLGPTPSRTETLVEETAAESSEDDVVAPSQSLLSGYMTPGLTPANSQASKATPKLDSSPSVSSTLAAKDDPDGKQEAKPQQAAGMLSPKTGGKEAASGTTPQKSRKPKKGAGNPQASTLALQSNITQCLLGQPWPLNEAQVQASVVKVLTELLEQERKKVVDTTKESSRKGWESRKRKLSGDQPAARTPRSKKKKKLGAGEGGEASVSPEKTSTTSKGKAKRDKASGDVKEKKGKGSLGSQGAKDEPEEELQKGMGTVEGGDQSNPKSKKEKKKSDKRKKDKEKKEKKKKAKKASTKDSESPSQKKKKKKKKTAEQTV
Take B2: the binding entry with SFB-tagged IP6K1 (human) [2] is on record as “binds”.

Source of the values: article doi:10.1101/2023.12.10.570918.
